Measurements taken from the supplement of paper PMC10338343.
± gives the standard deviation. This is a selection; strong and weak results do not stand in their true shares. Many entries were measured with a wide error.

What follows are sequences tested on MIWI (PIWIL1) piRISC loaded with Kctd7 piRNA (30 nt) (assay: pre-steady-state target cleavage rate (min^-1); MIWI and MILI are mouse PIWI proteins and EfPiwi is from a freshwater sponge; tags in brackets are library labels; higher = faster piRNA-guided slicing of the target). Settings: guide: Kctd7 piRNA 5'p-UGUUAAUCUCUCAGAGAAGGUGACAGUGAU; auxiliary factor: 500 nM mouse GTSF1.
Experimental: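 Cleave-'n-Seq: a library of target RNAs (target site embedded in constant flanks, ACAGCATTCCGCGTTAGTGATATCCG... 5' flank; DNA-blocked outside the site) at 0.1 nM was incubated with 1 nM active mouse MILI or MIWI piRISC (synthetic 5'-monophosphorylated piRNA guide) with or without 500 nM mouse GTSF1 at 33 °C for 1 min to 16 h. Uncleaved targets were sequenced and normalised to non-target controls, and the pooled three trials were fitted to a burst-and-steady-state model to give the pre-steady-state cleavage rate (min^-1; k3 is constrained to at most 1e-4). Sequence is the target site only; target names encode pairing extent (gX:gY) and contiguous / 1-mismatch / 2-mismatch / bulge geometry. Fits with R² ≤ 0 are excluded.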

Row | Sequence | pre-steady-state target cleavage rate
1 | UAGUGACACACCUACUCUGAGAGAUUAUGA | 0.0029 ± 0.0032
2 | UAGUGACAGUGCUUCUCUGUGAGAUAAACA | 0.000517 ± 0.011
3 | UAGUGACUCACCUUCUCUGAGAGUAAAAGA | 0.00221 ± 0.0044
4 | UAGUGUGUCACCUUCUCACUGAGAUUAUGA | 0.00157 ± 0.0079
5 | UAGUGACAGUCCUUCUCUCUCAGAUUAAGA | 0.00018 ± 0.039
6 | UAGUGACACACCUUCUCUGAGUCUUUAUGA | 0.000675 ± 0.013
7 | UAGACUGUCACCUUCUCUCAGAGAUAUUGA | 0.00178 ± 0.0044
8 | UAGUGACAGUCCUUGUCUGUGAGAUUAACA | 0.00239 ± 0.0032
9 | UACAGUGUCACCUUCUCUGAGUGAUUAACA | 0.0377 ± 0.0077
10 | UACACUGUCACCUUCUCUGUCUCUAAUUGA [g12:g28:cont:t1A] | 0.00173 ± 0.0087
11 | UAGUGACAGACCUUCUCUGAGAGAAUAAGA | 0.00151 ± 0.0065
12 | UAGUGACAGACCUUCUCAGAGAGAUUAUGA | 0.00121 ± 0.0086
13 | UAGUGACACAGGAUCUCUGAGAGAUAUUGA | 0.000102 ± 0.035
14 | UAGUGUGUCACCUUCUCUCUGAGAUUUUGA | 0.00115 ± 0.011
15 | UAGUGACACACCUUCUCUGAGCAGAUUAACA | 0.000467 ± 0.0096
16 | UAGUGACACACCUUCUCUGACUCUAAUUGA [g11:g22:cont:t1A] | 0.000291 ± 0.03
17 | UAGUGACAGUGGAAGAGACUCUCAUUAACA | 0.000158 ± 0.02
18 | UAGUGACUCACCUUCUCACAGAGAUUAACA | 0.00108 ± 0.0068
19 | UAGUGACAGUGCUUCUCUGGGAGAUUAACA | 0.00221 ± 0.0033
20 | UAGUGACACACGUUCUCUGAGAGAUUUUGA | 0.000579 ± 0.012
21 | UUCACUGUCACCUUCUCUCUCAGAUUAAGA | 0.00255 ± 0.0046
22 | UAGUGACUCACCUUCUCUGACAGAUUUUGA | 0.000709 ± 0.01
23 | UUCACUGUCUCGUUCUCUGAGAGAUUAACA | 0.631 ± 0.035
24 | UAGUGACAGACCUUGACUGAGAGAUUAACA | 0.00189 ± 0.0069

Row | Sequence | pre-steady-state target cleavage rate
25 | UAGUGACACACCUUCUCUGAAGAUUAACA | 0.00202 ± 0.0047
26 | UAGUGACAGACCUUCUCUGAGCAGAUUAACA | 0.00301 ± 0.0034
27 | AUGACUGUCUCCUUCUCUGAGAGAUUAACA | 0.623 ± 0.037
28 | UACACUGUCACCUUCUCUGACUGAUAUUGA | 0.00184 ± 0.0053
29 | UAGUGACACUCCUUCUCUGAGAGAUUUUGA | 0.00309 ± 0.0033
30 | UAGUGACAGUCCUUCUGAGAGAGAUUAUGA | 0.000448 ± 0.012
31 | UAGUGACAGUGGAACUCUGAGGAUUAACA | 0.000126 ± 0.031
32 | UAGUGUGUCACCUUCUCUGUCUGAUUAUGA | 0.0007 ± 0.016
33 | UACACUGUCACCUUCUCUCUCAGAUAUUGA | 0.00177 ± 0.0091
34 | UAGUGACAGUCCUUCUCUGAGGAGAUUAACA | 0.000831 ± 0.0083
35 | UAGUGACAGUCCUUCUCUGAGAGAUAUUCA | 0.00085 ± 0.0052
36 | UAGUGACACACCUUCUCUGAGUCUUUUUGA | 0.000586 ± 0.014
37 | UAGUGACACACCAACUCUGAGAGAUUAACA | 0.0222 ± 0.0043
38 | UAGUGACAGUGGAACUCUGAGAGUUUAACA | 0.000144 ± 0.033
39 | UAGUGACUCACCUUCUGUGAGAGAUAUUGA | 0.0024 ± 0.0053
40 | UAGUGACUCACCUUCUCUGAAGAGAUUAACA | 0.000781 ± 0.0084
41 | UAGACUGUCACCUACUCUGAGAGAUUUUGA | 0.000783 ± 0.0075
42 | UAGUGAGUCACCUUCUGACAGAGAUUAUGA | 0.000888 ± 0.01
43 | UAGUGACAGUCGUACUCUGAGAGAUUAACA | 0.00133 ± 0.0052
44 | UAGUGACACUGCUUCUCUGAGAGAUUUUGA | 0.000179 ± 0.024
45 | UAGUGACAGACCUUCUCAGAGUGAUUAACA | 0.00139 ± 0.011
46 | UACACUCUCACCUUCUCUGAGAGAUUAACA | 0.444 ± 0.031
47 | UAGUGACAGUGCUUGUCUGAGAGAAUAACA | 0.00105 ± 0.0073
48 | UAGUGACAGUGCUUCUCUGAGAGACUAACA | 0.00104 ± 0.006

Row | Sequence | pre-steady-state target cleavage rate
49 | AUCAGACUCACCUUCUCUGAGAGAUUAACA | 0.726 ± 0.045
50 | UAGUGAGUCACCUUCAGUGAGAGAUAUUGA | 0.00299 ± 0.0045
51 | UUACUGUCACCUUCUCUGAGAGAUUAACA | 0.743 ± 0.041
52 | UAGUGACAGUGGUUCAUCUGAGAGAUUAACA | 0.000223 ± 0.025
53 | UAGUGACAGUGGAAGAGACAGAGAAUAAGA | 0.000467 ± 0.016
54 | UAGUGACAGUCCUUCUCUGAGAGAUAAAGA | 0.000599 ± 0.0093
55 | UAGUGACAGUGGAAAUCUGAGAGAUUAACA | 0.00027 ± 0.013
56 | UAGUGACAGACCUACUCUGAGAGAUUAUGA | 0.000197 ± 0.019
57 | UAGUCUCAGACCUUCUCUGAGAGAUAUUGA | 0.00151 ± 0.0048
58 | UAGUGACAGUCCUUCUCUAGAGAUUAACA | 0.00165 ± 0.0054
59 | UAGACUGUCACCUUCUCUGUCUGAUUAAGA | 0.00102 ± 0.0066
60 | UAGUGACAGUCCUUCUCUGAGUGAUUAAGA | 0.000265 ± 0.024
61 | UAGUGACAGUGCUUCUCUGAGAGGAUUAACA | 0.00187 ± 0.004
62 | UAGACUGUCACCUUCUCUGAGUCAUUAUGA | 0.00082 ± 0.0063
63 | UGCACUGUCACCUUCUCUGAGAGAUUAACA | 0.726 ± 0.039
64 | UACACGUGUCACCUUCUCUGAGAGAUUAACA | 0.563 ± 0.026
65 | UAGUGACAGUGGAAGAGUGAGAGAUUACCA | 0.000104 ± 0.054
66 | UAGUGACAGUGCAUCUCUGAGUGAUUAACA | 0.00018 ± 0.014
67 | UAGACUGUCACCUCCUCUGAGAGAUUAACA | 0.744 ± 0.035
68 | UAGACUGUCACCUUCUCUGACAGAUAAACA | 0.00332 ± 0.0035
69 | UAGACUGUCACCUUCUCUGAGUGAUUAAGA | 0.00136 ± 0.0041
70 | UAGUGACAGAGCUUCUCAGAGAGAUUAACA | 0.0013 ± 0.0061
71 | UAGACUGUCAGCUUCUCUGAGAGAUUAACA | 0.753 ± 0.05
72 | UAGUGACAGUGCUUCUCUGAGAGUUUAAGA | 0.000346 ± 0.0082

Two records drawn at random from the list so far, as already listed:
Row | Sequence | pre-steady-state target cleavage rate
70 | UAGUGACAGAGCUUCUCAGAGAGAUUAACA | 0.0013 ± 0.0061
69 | UAGACUGUCACCUUCUCUGAGUGAUUAAGA | 0.00136 ± 0.0041

Part of the list above, as tab-separated lines.
Row	Sequence	pre-steady-state target cleavage rate
56	UAGUGACAGACCUACUCUGAGAGAUUAUGA	0.000197 ± 0.019
57	UAGUCUCAGACCUUCUCUGAGAGAUAUUGA	0.00151 ± 0.0048
